Reference: publication doi:10.1101/2024.06.17.598829 (bioRxiv, 2024)
Substitutions are numbered along the chain they refer to. These are yes or no findings as the source states them, for the method shown. Binding seen in cells or lysates may run through a third protein. Some binding calls cover weakened binding; strength is not graded here. For part of these data: Where a sequence is shown, tags or fusion partners need not be part of it. Values belong to the binder of their own block, whether it stands above or below them.

Experiments:
Test in all cases: co-IP
[1] = target: T1, NPH3ΔC51 (Arabidopsis thaliana) (UniProt Q9FMF5)
T1 sequence: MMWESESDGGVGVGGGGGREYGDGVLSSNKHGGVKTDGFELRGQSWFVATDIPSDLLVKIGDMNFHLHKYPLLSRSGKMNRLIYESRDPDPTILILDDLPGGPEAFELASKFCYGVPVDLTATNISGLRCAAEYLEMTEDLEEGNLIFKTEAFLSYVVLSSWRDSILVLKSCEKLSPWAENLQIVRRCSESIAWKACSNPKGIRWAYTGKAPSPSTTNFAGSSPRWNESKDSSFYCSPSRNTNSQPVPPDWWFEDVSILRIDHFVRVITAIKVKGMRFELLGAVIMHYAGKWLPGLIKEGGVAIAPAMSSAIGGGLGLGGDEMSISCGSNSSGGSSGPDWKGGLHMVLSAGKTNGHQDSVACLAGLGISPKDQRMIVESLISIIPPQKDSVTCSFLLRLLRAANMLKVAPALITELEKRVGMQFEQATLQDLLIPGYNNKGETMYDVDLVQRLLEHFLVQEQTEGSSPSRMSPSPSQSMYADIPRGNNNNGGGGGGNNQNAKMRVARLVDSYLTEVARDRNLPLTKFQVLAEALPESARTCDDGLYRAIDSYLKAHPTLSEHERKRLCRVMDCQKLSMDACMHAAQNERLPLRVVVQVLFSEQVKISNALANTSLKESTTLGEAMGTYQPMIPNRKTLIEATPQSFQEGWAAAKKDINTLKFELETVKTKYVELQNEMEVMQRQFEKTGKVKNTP

[2] = target: NPH3ΔC164 (Arabidopsis thaliana) (UniProt Q9FMF5)
[3] = target: T2, NON-PHOTOTROPIC HYPOCOTYL 3 (NPH3), fluorophore-tagged, expressed in N. benthamiana (Arabidopsis thaliana) (UniProt Q9FMF5)
T2 sequence: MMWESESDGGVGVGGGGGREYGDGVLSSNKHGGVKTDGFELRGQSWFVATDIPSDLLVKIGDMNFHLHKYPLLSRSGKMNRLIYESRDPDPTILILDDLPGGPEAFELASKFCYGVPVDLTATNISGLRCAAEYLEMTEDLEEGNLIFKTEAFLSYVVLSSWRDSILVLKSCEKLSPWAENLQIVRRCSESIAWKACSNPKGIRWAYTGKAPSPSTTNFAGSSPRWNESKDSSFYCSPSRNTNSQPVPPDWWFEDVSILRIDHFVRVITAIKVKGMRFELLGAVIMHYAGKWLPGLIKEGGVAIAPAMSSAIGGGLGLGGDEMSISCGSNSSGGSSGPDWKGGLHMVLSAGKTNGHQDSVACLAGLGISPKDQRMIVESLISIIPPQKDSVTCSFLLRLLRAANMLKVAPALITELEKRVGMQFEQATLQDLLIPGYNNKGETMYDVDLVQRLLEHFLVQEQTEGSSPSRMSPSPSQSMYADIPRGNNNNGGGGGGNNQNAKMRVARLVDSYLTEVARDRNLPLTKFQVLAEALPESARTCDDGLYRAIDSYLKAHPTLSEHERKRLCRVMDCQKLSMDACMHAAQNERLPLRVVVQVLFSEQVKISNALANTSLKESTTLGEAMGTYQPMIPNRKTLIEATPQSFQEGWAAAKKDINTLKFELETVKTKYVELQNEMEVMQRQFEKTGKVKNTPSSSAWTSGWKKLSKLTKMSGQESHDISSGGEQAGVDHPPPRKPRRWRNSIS

[4] = target: T3, NPH3_S744A (Arabidopsis thaliana) (UniProt Q9FMF5)
T3 sequence: T2 sequence with S744A

[5] = target: T4, ROOT PHOTOTROPISM 2 (RPT2), RFP-tagged (Arabidopsis thaliana) (UniProt Q682S0)
T4 sequence: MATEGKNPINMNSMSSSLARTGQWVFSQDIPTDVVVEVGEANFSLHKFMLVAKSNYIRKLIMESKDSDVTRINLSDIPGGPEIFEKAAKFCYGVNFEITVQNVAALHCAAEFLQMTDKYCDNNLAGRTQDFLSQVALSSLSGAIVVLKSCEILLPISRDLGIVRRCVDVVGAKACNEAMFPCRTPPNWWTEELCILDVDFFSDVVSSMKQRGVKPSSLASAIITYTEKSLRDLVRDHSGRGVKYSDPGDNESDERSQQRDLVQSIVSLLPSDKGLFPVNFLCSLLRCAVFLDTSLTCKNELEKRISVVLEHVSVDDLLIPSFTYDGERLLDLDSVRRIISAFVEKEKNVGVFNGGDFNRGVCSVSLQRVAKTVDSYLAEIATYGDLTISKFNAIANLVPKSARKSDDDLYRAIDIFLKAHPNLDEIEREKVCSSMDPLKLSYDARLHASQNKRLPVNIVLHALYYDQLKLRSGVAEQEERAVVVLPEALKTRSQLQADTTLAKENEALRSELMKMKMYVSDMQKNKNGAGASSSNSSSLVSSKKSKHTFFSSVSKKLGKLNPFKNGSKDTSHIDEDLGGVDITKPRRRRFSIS

binding [1]: binds weakly
binding [2]: binds weakly
binding [3]: binds weakly
B1: NPH3ΔC164 (domain or fragment, UniProt Q9FMF5 1-582)
chain: MMWESESDGGVGVGGGGGREYGDGVLSSNKHGGVKTDGFELRGQSWFVATDIPSDLLVKIGDMNFHLHKYPLLSRSGKMNRLIYESRDPDPTILILDDLPGGPEAFELASKFCYGVPVDLTATNISGLRCAAEYLEMTEDLEEGNLIFKTEAFLSYVVLSSWRDSILVLKSCEKLSPWAENLQIVRRCSESIAWKACSNPKGIRWAYTGKAPSPSTTNFAGSSPRWNESKDSSFYCSPSRNTNSQPVPPDWWFEDVSILRIDHFVRVITAIKVKGMRFELLGAVIMHYAGKWLPGLIKEGGVAIAPAMSSAIGGGLGLGGDEMSISCGSNSSGGSSGPDWKGGLHMVLSAGKTNGHQDSVACLAGLGISPKDQRMIVESLISIIPPQKDSVTCSFLLRLLRAANMLKVAPALITELEKRVGMQFEQATLQDLLIPGYNNKGETMYDVDLVQRLLEHFLVQEQTEGSSPSRMSPSPSQSMYADIPRGNNNNGGGGGGNNQNAKMRVARLVDSYLTEVARDRNLPLTKFQVLAEALPESARTCDDGLYRAIDSYLKAHPTLSEHERKRLCRVMDCQKLSMDACM

binding [4]: binds
binding [5]: binds
binding [3]: binds
B2: NON-PHOTOTROPIC HYPOCOTYL 3 (NPH3), fluorophore-tagged, expressed in N. benthamiana (protein, UniProt Q9FMF5 1-746)
chain: T2 sequence
